Test results: patent US7615377B2, “Fluorescein-based metal sensors” (Massachusetts Institute of Technology, priority 2003, dated 2009)

Assay: Hg^2+ binding studies by absorption spectroscopy (Job analysis, metal binding titration) to obtain stoichiometry
Conditions: 10 μM probe; for Job analysis, break (change in slope): 10 μM Hg^2+ solution

Row | Compound | Job analysis, break (change in slope) (pH 7 (50 mM PIPES, 100 mM KCl)) | metal binding titration, break (pH 11 (50 mM CABS, 100 mM KCl)) | metal binding titration, break (pH 7 (50 mM PIPES, 100 mM KCl))
1 | O=C(O)c1ccccc1-c1c2cc(Cl)c(=O)cc-2oc2c(CN(CCS)Cc3ccccn3)c(O)ccc12 [sensor 1] | 0.5 | 1 equivalent of Hg^2+ | 
2 | CC(C)(S)CN(Cc1ccccn1)Cc1c(O)ccc2c(-c3ccccc3C(=O)O)c3cc(Cl)c(=O)cc-3oc12 [sensor 2] | 0.5 |  | 
3 | CCSCCN(CCSCC)Cc1ccccc1NCc1c(O)ccc2c(-c3ccccc3C(=O)O)c3cc(Cl)c(=O)cc-3oc12 [sensor 3, 2-{5-[(2-{[Bis-(2-ethylsulfanyl-ethyl)-amino]-methyl}-phenylamino)-methyl]-2-chloro-6-hydroxy-3-oxo-3H-xanthen-9-yl}-benzoic acid] |  |  | 1 equivalent of Hg^2+
